At least one compound was matched to its structure with a doubt left.
Test system: severe posthypoxic myoclonus
Assay: Earlier trials of anti-myoclonic medications in the Example 1 patient (case history)
Settings: before the trial
Source text: The patient was referred to the Columbia University Medical Center Movement Disorder Center for evaluation of severe posthypoxic myoclonus at the age of 37. […] Back-averaged EEGs and somatosensory evoked potentials were not available.

## CCC1(c2ccccc2)C(=O)NC(=O)NC1=O [phenobarbital]
  outcome of trials of anti-myoclonic medications: only minimally successful

Source: patent US20090137565A1, “Method for treatment of movement disorders” (The Trustees of Columbia University in the City of New York, priority 2004, published 2009)
